Laboratory results published in US20030105000A1.
No constants are given. Whether binding was seen depends on the method and setting. In cells and extracts the contact can be indirect. Some binding calls cover weakened binding; strength is not graded here.

Molecular target: Grb7 (in lysate of heregulin-stimulated SKBR3 cells) (UniProt Q14451)
Experiment: co-immunoprecipitation competition in SKBR3 lysate, peptide at 100 uM; blocked partner ErbB family

In the case of RSTLCWFEGYDNTFPCKYFR (non-phosphorylated; disulfide bond between the two fixed cysteines) [G7-18 free synthetic peptide], the binding is reported as “binds”.
